These are yes or no findings as the source states them, for the method shown. Some results given as binding are weak or reduced against the parent protein; the word gives no strength.

Protein sequences, listed by entry. Tags and fused reporters are not part of them. Residues count along the entry.
HCV NS3 (strain H) (P27958, residues 1027-1657): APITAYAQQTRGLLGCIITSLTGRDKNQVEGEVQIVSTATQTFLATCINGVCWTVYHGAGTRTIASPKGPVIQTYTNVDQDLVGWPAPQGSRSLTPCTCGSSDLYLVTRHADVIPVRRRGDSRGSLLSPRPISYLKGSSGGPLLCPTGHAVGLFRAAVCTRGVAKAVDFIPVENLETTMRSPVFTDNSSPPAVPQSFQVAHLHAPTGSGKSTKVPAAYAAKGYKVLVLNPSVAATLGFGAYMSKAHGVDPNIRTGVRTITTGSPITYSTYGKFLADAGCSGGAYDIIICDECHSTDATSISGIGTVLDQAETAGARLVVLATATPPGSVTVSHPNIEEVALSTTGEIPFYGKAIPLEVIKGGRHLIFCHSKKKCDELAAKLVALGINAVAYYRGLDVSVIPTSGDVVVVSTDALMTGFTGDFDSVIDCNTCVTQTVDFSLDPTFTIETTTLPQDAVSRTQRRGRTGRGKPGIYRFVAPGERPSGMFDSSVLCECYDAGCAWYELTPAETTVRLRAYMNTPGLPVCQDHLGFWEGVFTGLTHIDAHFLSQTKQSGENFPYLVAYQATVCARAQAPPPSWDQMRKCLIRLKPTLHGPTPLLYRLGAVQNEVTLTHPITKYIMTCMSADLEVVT
HCV NS4a, full length (strain H) (P27958, residues 1658-1711): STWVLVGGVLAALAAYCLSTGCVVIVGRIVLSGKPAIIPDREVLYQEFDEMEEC
HCV NS4b (strain H) (P27958, residues 1712-1972): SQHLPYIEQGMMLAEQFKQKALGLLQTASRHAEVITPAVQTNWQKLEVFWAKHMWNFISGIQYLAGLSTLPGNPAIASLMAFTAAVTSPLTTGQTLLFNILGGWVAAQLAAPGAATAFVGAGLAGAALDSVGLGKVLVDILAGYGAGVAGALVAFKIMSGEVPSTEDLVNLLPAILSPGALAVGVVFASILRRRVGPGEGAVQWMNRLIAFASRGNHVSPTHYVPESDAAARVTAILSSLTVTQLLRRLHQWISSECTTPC

The target in experiment [1] is HCV NS4b (strain H) (hepatitis C virus strain H) (UniProt P27958). Description: yeast two-hybrid matrix of selected preys against HCV baits.
In experiment [2] the target is HCV NS4a, full length (strain H) (hepatitis C virus strain H) (UniProt P27958). The description is as above.

Take “HCV NS4a, full length (strain H) (from UniProt P27958 1658-1711)”: the binding entry in experiment [1] is given as “binds”. As to “HCV NS3 (strain H) (from UniProt P27958 1027-1657) (enzyme)”, the binding entry in experiment [2] is on record as “binds”.

For the origin of these results see patent US20040229213A1 (INSTITUT PASTEUR, published 2004).
